At least one structure is not confirmed: it was looked up by name or label, or the drawing left a doubt.
Tested on: homozygous JAK2 V617F knock-in mouse model of MF
Assay: Homozygous JAK2 V617F knock-in mouse model of MF
Type: in vivo
Conditions: Compound 1 150 mg/kg, ruxolitinib 60 mg/kg, 6 weeks
Protocol: Bone marrow cells from homozygous JAK2 V617F knock-in mice were transplanted into lethally irradiated C57BL/6 recipients to obtain a cohort of MF mice with similar age. […] All mice were treated for 6 weeks.

N#CC[C@H](C1CCCC1)n1cc(-c2ncnc3[nH]ccc23)cn1 [ruxolitinib, reference compound]
fibrosis in bone marrow and spleen (reticulin staining): did not cause any significant reduction in fibrosis

Source: US20250082634A1, “PIM KINASE INHIBITORS FOR TREATMENT OF MYELOPROLIFERATIVE NEOPLASMS AND FIBROSIS ASSOCIATED WITH CANCER” (Sumitomo Pharma America, Inc., priority 2018, published 2025)
